Earlier results as cited in patent publication US10010502B2, “Device that delivers a sustained low-dose of a myopia-suppressing drug, while preserving pupillary function and accommodation” (AMORPHEX THERAPEUTICS LLC, priority 2015, dated 2018).
Read-outs that look alike come from different tables or passages of the source.

System: myopia progression

CN1[C@@H]2CC[C@H]1C[C@@H](OC(=O)C(CO)c1ccccc1)C2 (some centres unmarked) [atropine]
children asking for tinted glasses (higher dose groups): > 60% | children asking for tinted glasses (lower dose study group): 6%
